Assay: Oxygen quenching calibration (Stern-Volmer) in tetrahydrofuran
Format: physicochemical
Conditions: 10 μM in tetrahydrofuran
Method: The photoluminescence spectra of the Pt(ttiq)(acac) (10 μM) in tetrahydrofuran in different oxygen concentrations upon 500 nm photoexcitation is presented in FIG. 2A. The phosphorescence peak intensity (698 nm) increases while the oxygen level of the solution decreases, whereas the fluorescence (528 nm) remains independent of the oxygen level. The oxygen quenching of the phosphorescence may be interpreted using Stern-Volmer relationship, in which (I0/I=1+KSV·[O2]) where I: phosphorescence intensity; I0: phosphorescence intensity at 0% of oxygen; KSV: quencher coefficient; [O2]: oxygen concentration. […] Mathematically, the Stern-Volmer relationship could be further derived to (R0/R=1+KSV·[O2]) whereas the fluorescence peak intensity is a constant, and thus the R0 could be estimated from the equation of (y=2.04177/(1+0.03267−x); adjusted R^2=0.97785) in FIG. 2D. […]
The oxygen concentration (%) or partial pressure of solution samples were varied by O2/N2 gas-purging with a syringe needle and natural ventilation (or gradually adding sodium sulfite (Na2SO3) solution as an oxygen consuming chemical reagent). […] The photoluminescence signals of the nano-sensor solution at different oxygen concentrations (%) (or partial pressures) were then measured by the fluorescence spectrophotometer and confocal laser scanning microscope. […]

CC(=O)C=C(C)[O][Pt][c]1c(-c2nccc3ccccc23)sc2ccsc12 [Pt(ttiq)(acac)]
estimated maximum intensity ratio R0 (phosphorescence over fluorescence, FIG. 2D): 2.042 | estimated maximum phosphorescence intensity I0 (Stern-Volmer fit, FIG. 2B): 133.8

Source: patent US20250177576A1, “COMPOUNDS FOR THE MEASUREMENT OF THE OXYGEN CONCENTRATION” (Center for Neuromusculoskeletal Restorative Medicine Limited, priority 2022, published 2025)
